The record followed here is US20090081183A1, “HIV Transcription Repressor Complex and Compositions and Methods Based Thereon” (priority 1997, published 2009).

Amino acid sequences for entries named in this document (tags omitted). A change or cut given only in a name is not applied to a line headed by its entry.
UniProt P25490: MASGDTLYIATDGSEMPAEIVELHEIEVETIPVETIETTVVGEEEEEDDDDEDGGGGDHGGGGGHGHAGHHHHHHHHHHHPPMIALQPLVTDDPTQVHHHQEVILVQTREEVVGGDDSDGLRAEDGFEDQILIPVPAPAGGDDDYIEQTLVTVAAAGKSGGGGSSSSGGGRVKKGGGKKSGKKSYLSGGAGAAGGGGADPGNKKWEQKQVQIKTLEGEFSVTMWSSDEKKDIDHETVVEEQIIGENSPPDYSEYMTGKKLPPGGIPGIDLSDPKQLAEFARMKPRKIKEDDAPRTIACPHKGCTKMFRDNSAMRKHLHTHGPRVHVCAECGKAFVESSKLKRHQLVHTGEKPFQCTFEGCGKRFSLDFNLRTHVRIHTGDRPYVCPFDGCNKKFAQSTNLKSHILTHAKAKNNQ
UniProt Q13547: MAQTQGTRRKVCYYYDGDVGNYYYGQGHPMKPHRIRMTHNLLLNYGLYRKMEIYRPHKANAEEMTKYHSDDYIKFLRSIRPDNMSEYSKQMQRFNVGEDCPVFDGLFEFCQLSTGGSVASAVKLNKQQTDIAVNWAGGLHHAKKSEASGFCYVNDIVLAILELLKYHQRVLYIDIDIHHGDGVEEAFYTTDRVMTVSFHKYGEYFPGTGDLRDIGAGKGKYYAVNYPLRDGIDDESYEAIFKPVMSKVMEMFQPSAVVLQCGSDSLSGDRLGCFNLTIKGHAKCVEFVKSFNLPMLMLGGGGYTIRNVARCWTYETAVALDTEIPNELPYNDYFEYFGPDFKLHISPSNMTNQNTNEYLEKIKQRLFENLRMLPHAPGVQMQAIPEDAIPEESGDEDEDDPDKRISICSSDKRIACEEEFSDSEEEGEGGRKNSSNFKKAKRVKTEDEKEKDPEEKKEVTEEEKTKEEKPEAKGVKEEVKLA

No constants are given. Whether binding was seen depends on the method and setting. Binding seen in cells or lysates may run through a third protein. Some binding calls cover weakened binding; strength is not graded here.

The target of assay [1] is T1, LSF, wild type, transcribed and translated in vitro in rabbit reticulocyte lysate, 35S-methionine labeled (human) (UniProt Q12800).
T1 sequence (chain, 35S-methionine label): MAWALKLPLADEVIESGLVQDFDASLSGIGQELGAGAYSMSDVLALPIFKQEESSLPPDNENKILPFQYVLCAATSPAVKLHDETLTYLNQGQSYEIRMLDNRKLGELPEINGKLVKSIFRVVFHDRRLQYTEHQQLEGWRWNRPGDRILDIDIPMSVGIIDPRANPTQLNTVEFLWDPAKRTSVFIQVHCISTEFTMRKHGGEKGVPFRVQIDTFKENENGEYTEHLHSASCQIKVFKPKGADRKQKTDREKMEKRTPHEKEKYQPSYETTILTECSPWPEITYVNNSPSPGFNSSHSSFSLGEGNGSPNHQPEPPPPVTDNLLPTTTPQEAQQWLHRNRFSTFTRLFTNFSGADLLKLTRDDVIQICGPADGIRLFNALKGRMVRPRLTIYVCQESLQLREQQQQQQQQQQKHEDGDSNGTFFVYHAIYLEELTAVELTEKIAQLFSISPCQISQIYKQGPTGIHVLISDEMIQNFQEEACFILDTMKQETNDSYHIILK
Nature of the assay: GST pull-down of 35S-labeled LSF.

In assay [2] the target is T1, LSF, wild type, transcribed and translated in vitro in rabbit reticulocyte lysate, 35S-methionine labeled (human). Nature of the assay: GST pull-down of 35S-labeled LSF, autoradiography.
Assay [3] addresses YY1-LSF complex purified from CEM cell nuclear extract (RCS-binding repressor complex) (human) (UniProt P25490). Nature of the assay: copurification through phosphocellulose, DEAE-cellulose and RCS DNA-affinity chromatography; Western blot and deacetylase activity. In general terms: A western blot detects proteins with antibodies after separation by electrophoresis.
Assay [4] concerns the target T1, LSF, wild type, transcribed and translated in vitro in rabbit reticulocyte lysate, 35S-methionine labeled (human). Nature of the assay: GST pull-down of 35S-labeled LSF, normalized for protein concentration.

“GST-YY1 (full-length wild type YY1 fused to glutathione-S-transferase) (from UniProt P25490 1-414)”: the binding result in assay [1] and in assay [2] was “binds” each time.

Turning to “HDAC1 (histone deacetylase 1), endogenous cellular protein (from UniProt Q13547 1-482) (enzyme)”, in assay [3], the binding result was “binds”.

Turning to “YZnFs (GST fused to all four YY1 zinc fingers, without the YY1 amino-terminal region) (from UniProt P25490 295-414)”, the binding entry in assay [1], in assay [2] and in assay [4] was “binds” in each case.
